The list is a part of this screen's results and no random one: it gathers tests that were run many times, whatever their T/C, doses with no T/C, and many T/C values between a quarter and a half above the control. Other doses and runs of a compound stand elsewhere. T/C is the treated group as % of the vehicle group. Some entries give survivors of the animals treated and no T/C: the source holds a T/C of zero for them, seemingly a mark for toxic or unscored doses. Some survivor counts are full or nearly so, which does not show that the dose was tolerated: the source hardly ever lists a survival T/C far under the control, and the zero likely stands for such cases as well. Survivors were counted at the toxicity check, usually on the fifth day, unless a day is given; later deaths do not show. Schedules are NCI's codes, taken here to give the interval after Q, in days (D) or hours (H), and the number of doses after X. Some doses were run more than once; the results are listed from low to high. Some molecules as drawn cover several salts, stereoisomers or complexes of the source; a dose is that of the sample tested. Where survival is the endpoint, this PubChem deposit counts one and a half times the control or more as active, and values a quarter to a half above the control carry no call in these data; other NCI protocols may use other cut-offs. Some T/C values carry the count of animals alive at the toxicity check (mostly the fifth day); where none is given, no animal had died by that day.
Tested on: BDF1 mice, P388 leukemia ip, median survival T/C
Assay: NCI In Vivo Anticancer Drug Screen. Data for tumor model P388 Leukemia (intraperitoneal) in B6D2F1 (BDF1) mice
Conditions: T/C endpoint: median survival time, higher T/C = longer survival
Method in brief: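 Steps: implant the tumour, treat one group with compound and another with vehicle, record survival, then divide treated by control.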

[1] = dose: 400.0 mg/kg/injection, schedule: Q01DX009 (ip), vehicle: saline with Tween-80
[2] = dose: 200.0 mg/kg/injection, schedule: Q01DX009 (ip), vehicle: saline
[3] = dose: 200.0 mg/kg/injection, schedule: Q04DX003 (ip), vehicle: Klucel (hydroxypropylcellulose) (HPC)
[4] = dose: 400.0 mg/kg/injection, schedule: Q04DX003 (ip), vehicle: Klucel (hydroxypropylcellulose) (HPC)
[5] = dose: 400.0 mg/kg/injection, schedule: Q04DX002 (ip), vehicle: saline with Tween-80
[6] = dose: 25.0 mg/kg/injection, schedule: Q01DX009 (ip), vehicle: saline
[7] = dose: 200.0 mg/kg/injection, schedule: Q01DX009 (ip), vehicle: saline with Tween-80

Q: With `CCO/C=C1\SC(=S)N(c2cccc(OC)c2)C1=O` as the molecule, how does the T/C (dose: 178.0 mg/kg/injection, schedule: Q01DX009 (ip), vehicle: saline with Tween-80) read?
A: 140 % of control

Q: What about the T/C (dose: 200.0 mg/kg/injection, schedule: Q04DX003 (ip), vehicle: saline with Tween-80) of the same molecule?
A: 138 % of control

Q: And the T/C (dose: 266.0 mg/kg/injection, schedule: Q01DX009 (ip), vehicle: saline with Tween-80)?
A: 129 % of control

Q: What about the T/C [1] of the same molecule?
A: 139 % of control

Q: And the T/C (dose: 400.0 mg/kg/injection, schedule: Q04DX003 (ip), vehicle: saline with Tween-80)?
A: 144 % of control

Q: What about the T/C (dose: 600.0 mg/kg/injection, schedule: Q01DX009 (ip), vehicle: saline with Tween-80) of the same molecule?
A: 131 % of control

Q: Which results are given for `O=C1C=CC(=O)c2c(Cl)ccc(O)c21`?
A: T/C (dose: 1.25 mg/kg/injection, schedule: Q01DX009 (ip), vehicle: Klucel (hydroxypropylcellulose) (HPC)): 135 % of control; T/C (dose: 2.5 mg/kg/injection, schedule: Q01DX009 (ip), vehicle: Klucel (hydroxypropylcellulose) (HPC)): 125 % of control; T/C (dose: 5.0 mg/kg/injection, schedule: Q01DX009 (ip), vehicle: Klucel (hydroxypropylcellulose) (HPC)): 140 % of control; survivor count (dose: 10.0 mg/kg/injection, schedule: Q01DX009 (ip), vehicle: Klucel (hydroxypropylcellulose) (HPC)): 3 of 6

Q: For `COc1cc(-c2ccc(Nc3ccccc3C(=O)O)c(OC)c2)ccc1Nc1ccccc1C(=O)O`, which T/C (dose: 12.5 mg/kg/injection, schedule: Q01DX010 (ip), vehicle: saline) is on record?
A: 129 % of control

Q: And the T/C (dose: 25.0 mg/kg/injection, schedule: Q01DX010 (ip), vehicle: saline)?
A: 133 % of control

Q: For `CC(C)(C)C1CCC(C#N)(N=Nc2ccccc2)CC1` (stereo not given), which survivor count (dose: 200.0 mg/kg/injection, schedule: Q01DX005 (ip), vehicle: saline with Tween-80) is on record?
A: 0 of 6

Q: What does the source list for `CC[N+](C)(C)CC`?
A: survivor count (dose: 200.0 mg/kg/injection, schedule: Q01DX001 (ip), vehicle: saline): 0 of 6; survivor count (dose: 400.0 mg/kg/injection, schedule: Q01DX001 (ip), vehicle: saline): 0 of 6

Q: Which results are given for `COc1cc2cc(c1Cl)NC(=O)CC(OC(=O)C(C)N(C)C(C)=O)C1(C)OC1C(C)C1CC(O)(NC(=O)O1)C(OC)C=C/C=C(\C)C2` (stereo not given)?
A: T/C (dose: 1.6 micrograms/kg/injection, schedule: Q01DX009 (ip), vehicle: saline + alcohol): 130 % of control; T/C (dose: 3.1 micrograms/kg/injection, schedule: Q01DX009 (ip), vehicle: saline + alcohol): 125 % of control

Q: How did the survivor count [2] turn out when `CCC1OCCN1C(C)C` (stereo not given) was run?
A: 6 of 6

Q: How did the survivor count (dose: 50.0 mg/kg/injection, schedule: Q01DX009 (ip), vehicle: saline) turn out when `O=Cc1c[nH]c2nccnc12` was run?
A: 5 of 6

Q: What about the survivor count (dose: 400.0 mg/kg/injection, schedule: Q01DX009 (ip), vehicle: saline) of the same molecule?
A: 4 of 6

Q: What does the source list for `c1ccc2c(c1)C1c3ccccc3C2C2COCC12` (stereo not given)?
A: survivor count (dose: 150.0 mg/kg/injection, schedule: Q01DX009 (ip), vehicle: Klucel (hydroxypropylcellulose) (HPC)): 5 of 6; survivor count (dose: 225.0 mg/kg/injection, schedule: Q01DX009 (ip), vehicle: Klucel (hydroxypropylcellulose) (HPC)): 0 of 6; survivor count (dose: 335.0 mg/kg/injection, schedule: Q01DX009 (ip), vehicle: Klucel (hydroxypropylcellulose) (HPC)): 0 of 6

Q: Which survivor count (dose: 37.5 mg/kg/injection, schedule: Q04DX003 (ip), vehicle: Klucel (hydroxypropylcellulose) (HPC)) does the source give for `O=C(CCCN1CCC(O)(c2cccc(C(F)(F)F)c2)CC1)c1ccc(F)cc1` here?
A: 6 of 6

Q: And the survivor count (dose: 75.0 mg/kg/injection, schedule: Q04DX003 (ip), vehicle: Klucel (hydroxypropylcellulose) (HPC))?
A: 6 of 6

Q: What about the survivor count (dose: 100.0 mg/kg/injection, schedule: Q01DX009 (ip), vehicle: Klucel (hydroxypropylcellulose) (HPC)) of the same molecule?
A: 0 of 6

Q: And the survivor count (dose: 100.0 mg/kg/injection, schedule: Q04DX003 (ip), vehicle: Klucel (hydroxypropylcellulose) (HPC))?
A: 3 of 6

Q: How did the survivor count (dose: 100.0 mg/kg/injection, schedule: Q01DX010 (ip), vehicle: saline) turn out when `COc1cc2c(cc1Oc1c(Oc3c(O)c(OC)cc4c3C(CC(C)C)N(C)CC4)c(OC)cc3c1C(CC(C)C)N(C)CC3)C(CC(C)C)N(C)CC2` (stereo not given) was run?
A: 6 of 6

Q: For `NC(=S)N=Nc1ccc(O)c2c(O)ccc(O)c12`, which survivor count (dose: 100.0 mg/kg/injection, schedule: Q01DX009 (ip), vehicle: water) is on record?
A: 4 of 8

Q: What about the survivor count (dose: 200.0 mg/kg/injection, schedule: Q01DX009 (ip), vehicle: water) of the same molecule?
A: 0 of 8

Q: `O=[N+]([O-])c1cc(S(=O)(=O)OCC2CO2)ccc1Cl` (stereo not given) was tested. Which survivor count (dose: 25.0 mg/kg/injection, schedule: Q04DX003 (ip), vehicle: Klucel (hydroxypropylcellulose) (HPC)) did it give?
A: 4 of 6

Q: What about the survivor count (dose: 50.0 mg/kg/injection, schedule: Q01DX009 (ip), vehicle: Klucel (hydroxypropylcellulose) (HPC)) of the same molecule?
A: 1 of 6

Q: And the survivor count (dose: 50.0 mg/kg/injection, schedule: Q04DX003 (ip), vehicle: Klucel (hydroxypropylcellulose) (HPC))?
A: 5 of 6

Q: What about the survivor count [3] of the same molecule?
A: 0 of 6

Q: And the survivor count [4]?
A: 0 of 6

Q: Which results are given for `CN1CCC2=C(C1)C(N1CCCC1)CS(=O)(=O)O2` (stereo not given)?
A: survivor count (dose: 100.0 mg/kg/injection, schedule: Q04DX002 (ip), vehicle: saline with Tween-80): 6 of 6; survivor count (dose: 200.0 mg/kg/injection, schedule: Q04DX002 (ip), vehicle: saline with Tween-80): 0 of 6; survivor count [5]: 0 of 6

Q: For `CCCCCC(CN(C)C)C(O)/C=C\c1ccccc1` (stereo not given), which survivor count [6] is on record?
A: 6 of 6

Q: And the survivor count [2]?
A: 0 of 6

Q: Which survivor count [7] does the source give for `CCCCNc1nc(N)nc(Nc2ccc(Br)cc2)c1N=O` here?
A: 6 of 6

Q: What about the T/C [3] of the same molecule?
A: 130 % of control

Q: What about the survivor count [1] of the same molecule?
A: 6 of 6

Q: And the T/C [4]?
A: 125 % of control [5 of 6 alive]

Q: `NC(CC1=CCC=CC1)C(=O)O` (stereo not given) was tested. Which survivor count [6] did it give?
A: 1 of 3

Q: What about the T/C (dose: 100.0 mg/kg/injection, schedule: Q01DX009 (ip), vehicle: saline) of the same molecule?
A: 127 % of control

Q: What about the survivor count [2] of the same molecule?
A: 3 of 3

Q: How did the survivor count (dose: 0.22 mg/kg/injection, schedule: Q01DX009 (ip), vehicle: saline) turn out when `CN(Cc1ccc2nc(N)nc(N)c2c1)c1ccc(C(=O)NC(CCC(=O)O)C(=O)O)cc1` (stereo not given) was run?
A: 6 of 6

Q: And the survivor count (dose: 0.62 mg/kg/injection, schedule: Q01DX009 (ip), vehicle: saline)?
A: 4 of 6

Q: And the survivor count (dose: 1.25 mg/kg/injection, schedule: Q01DX009 (ip), vehicle: saline)?
A: 1 of 6

Q: What about the T/C (dose: 1.65 mg/kg/injection, schedule: Q04DX003 (ip), vehicle: saline) of the same molecule?
A: 136 % of control

Q: And the survivor count (dose: 2.5 mg/kg/injection, schedule: Q01DX009 (ip), vehicle: saline)?
A: 6 of 6

Q: And the survivor count (dose: 5.0 mg/kg/injection, schedule: Q01DX009 (ip), vehicle: saline)?
A: 3 of 6

Q: Which survivor count [5] does the source give for `Cn1c(-c2ccccc2)c2c(c1-c1ccccc1)CCCC2` here?
A: 6 of 6

Q: How did the T/C (dose: 21.25 mg/kg/injection, schedule: Q01DX009 (ip), vehicle: Klucel (hydroxypropylcellulose) (HPC)) turn out when `CCOC(=O)c1cnc(SCc2ccccc2Cl)nc1N1CC1` was run?
A: 129 % of control

Q: And the T/C (dose: 42.5 mg/kg/injection, schedule: Q01DX009 (ip), vehicle: Klucel (hydroxypropylcellulose) (HPC))?
A: 128 and 145 % of control

Q: For `COc1cc2cc(c1Cl)NC(=O)CC(OC(=O)C(C)N(C)C(=O)C1(C)CC1C)C1(C)OC1C(C)C1CC(O)(NC(=O)O1)C(OC)C=C/C=C(\C)C2` (stereo not given), which T/C (dose: 0.1 micrograms/kg/injection, schedule: Q01DX009 (ip), vehicle: saline + alcohol) is on record?
A: 126 % of control

Q: And the T/C (dose: 0.2 micrograms/kg/injection, schedule: Q01DX009 (ip), vehicle: saline + alcohol)?
A: 126 % of control

Q: And the T/C (dose: 0.4 micrograms/kg/injection, schedule: Q01DX009 (ip), vehicle: saline + alcohol)?
A: 145 % of control

Q: What about the T/C (dose: 0.8 micrograms/kg/injection, schedule: Q01DX009 (ip), vehicle: saline + alcohol) of the same molecule?
A: 149 % of control

Q: And the survivor count (dose: 50.0 micrograms/kg/injection, schedule: Q01DX009 (ip), vehicle: saline + alcohol)?
A: 4 of 6 and 3 of 4

Q: With `O=C(NC(=O)c1c(F)cccc1F)Nc1ccc(Cl)nc1` as the molecule, how does the survivor count (dose: 25.0 mg/kg/injection, schedule: Q01DX009 (ip), vehicle: saline with Tween-80) read?
A: 6 of 6

Q: And the survivor count (dose: 50.0 mg/kg/injection, schedule: Q01DX009 (ip), vehicle: saline with Tween-80)?
A: 6 of 6

Q: What does the source list for `CSCC(C(N)=O)c1cc(Cl)ccc1Cl` (stereo not given)?
A: survivor count [7]: 3 of 6; survivor count [1]: 4 of 6

— PubChem BioAssay AID328 (DTP/NCI, 2004)
